Measured values taken from article PMC3874003.

Sequences of proteins named here, by UniProt entry; tags and fusion partners are left off. A change or cut given only in a name is not applied to a line headed by its entry.
UniProt O32266: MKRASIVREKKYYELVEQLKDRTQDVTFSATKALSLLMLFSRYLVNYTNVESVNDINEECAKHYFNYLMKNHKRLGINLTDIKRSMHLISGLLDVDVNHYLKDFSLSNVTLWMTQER

Key:
[1] = biological target: DegU~P (DegU phosphorylated by DegS + ATP) (Bacillus subtilis) (UniProt P13800); test: EMSA; conditions: 50 mM Tris-HCl pH 7.6, 10 mM MgCl2, 1 mM DTT, 25 mM KCl, 0.1 mg/ml BSA, 0.1 mM ATP, 0.1 ug sonicated salmon sperm DNA, recombinant protein, protein details: pET16b (His-tag implied), probe letters rebuilt from the primers and the genome
[2] = tested on: DegU~P (DegU phosphorylated by DegS + ATP) + SwrA; test: EMSA; conditions: 50 mM Tris-HCl pH 7.6, 10 mM MgCl2, 1 mM DTT, 25 mM KCl, 0.1 mg/ml BSA, 0.1 mM ATP, 0.1 ug sonicated salmon sperm DNA, recombinant protein, probe letters rebuilt from the primers and the genome
[3] = tested on: DegU~P (DegU phosphorylated by DegS + ATP) + GST-SwrA; test: EMSA; conditions: 0.1 uM DegU, 0.1 uM DegS, 1.5 uM GST-SwrA, ATP, slower SS* complex; 50 mM Tris-HCl pH 7.6, 10 mM MgCl2, 1 mM DTT, 25 mM KCl, 0.1 mg/ml BSA, 0.1 mM ATP, 0.1 ug sonicated salmon sperm DNA; recombinant protein; protein details: pET16b (His-tag implied),GST (N-terminal, pGEX-6P); label: 5'-32P; probe letters rebuilt from the primers and the genome
[4] = biological target: T1, GST-SwrA (Bacillus subtilis) (UniProt O32266); test: EMSA; conditions: GST-SwrA alone (not shown); 50 mM Tris-HCl pH 7.6, 10 mM MgCl2, 1 mM DTT, 25 mM KCl, 0.1 mg/ml BSA, 0.1 mM ATP, 0.1 ug sonicated salmon sperm DNA; recombinant protein; protein details: GST (N-terminal, pGEX-6P); label: 5'-32P; probe letters rebuilt from the primers and the genome
T1 sequence (looked up, limits assumed): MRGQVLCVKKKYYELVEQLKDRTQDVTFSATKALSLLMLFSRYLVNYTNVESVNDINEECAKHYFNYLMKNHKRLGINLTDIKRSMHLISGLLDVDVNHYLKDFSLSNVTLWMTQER

[5] = biological target: T2, DegU (unphosphorylated) (Bacillus subtilis) (UniProt P13800); test: EMSA; conditions: lower affinity than DegU~P, ATP required for the interaction (data not shown); 50 mM Tris-HCl pH 7.6, 10 mM MgCl2, 1 mM DTT, 25 mM KCl, 0.1 mg/ml BSA, 0.1 mM ATP, 0.1 ug sonicated salmon sperm DNA; recombinant protein; protein details: pET16b (His-tag implied); label: 6-FAM; probe letters rebuilt from the primers and the genome
T2 sequence (looked up, limits assumed): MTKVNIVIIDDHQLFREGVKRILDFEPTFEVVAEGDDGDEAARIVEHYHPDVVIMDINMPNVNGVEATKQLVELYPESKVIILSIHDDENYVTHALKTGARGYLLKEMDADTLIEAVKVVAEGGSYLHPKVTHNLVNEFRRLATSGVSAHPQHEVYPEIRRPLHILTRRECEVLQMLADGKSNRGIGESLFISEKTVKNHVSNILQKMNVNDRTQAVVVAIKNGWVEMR

[6] = biological target: DegU~P (phosphorylated by DegS200(Hy)) (Bacillus subtilis) (UniProt P13800); test: EMSA; conditions: phosphorylated by DegS200(Hy), ATP, same as wild-type DegS, FAM or 32P probe not stated for Fig 4; 50 mM Tris-HCl pH 7.6, 10 mM MgCl2, 1 mM DTT, 25 mM KCl, 0.1 mg/ml BSA, 0.1 mM ATP, 0.1 ug sonicated salmon sperm DNA; recombinant protein; protein details: pET16b (His-tag implied); label: 6-FAM; probe letters rebuilt from the primers and the genome
[7] = tested on: DegU~P (phosphorylated by DegS200(Hy)) + SwrA; test: EMSA; conditions: phosphorylated by DegS200(Hy), ATP, SS complex, FAM or 32P probe not stated for Fig 4; 50 mM Tris-HCl pH 7.6, 10 mM MgCl2, 1 mM DTT, 25 mM KCl, 0.1 mg/ml BSA, 0.1 mM ATP, 0.1 ug sonicated salmon sperm DNA; recombinant protein; label: 6-FAM; probe letters rebuilt from the primers and the genome
SwrA (Bacillus subtilis) = biological target: T3, SwrA (Bacillus subtilis) (UniProt O32266); test: EMSA; conditions: 1 uM SwrA, alone or with DegS; 50 mM Tris-HCl pH 7.6, 10 mM MgCl2, 1 mM DTT, 25 mM KCl, 0.1 mg/ml BSA, 0.1 mM ATP, 0.1 ug sonicated salmon sperm DNA; recombinant protein; protein details: from pGEX-6P GST fusion, untagged; label: 6-FAM; probe letters rebuilt from the primers and the genome
T3 sequence (looked up, limits assumed): T1 sequence (looked up, limits assumed)

[8] = biological target: DegU~P (DegU phosphorylated by DegS + ATP) (Bacillus subtilis) (UniProt P13800); test: competition with a labelled probe; conditions: 20 ng unlabeled DNA, did not compete (S complex); 50 mM Tris-HCl pH 7.6, 10 mM MgCl2, 1 mM DTT, 25 mM KCl, 0.1 mg/ml BSA, 0.1 mM ATP, 0.1 ug sonicated salmon sperm DNA; recombinant protein; protein details: pET16b (His-tag implied); probe letters rebuilt from the primers and the genome
[9] = tested on: DegU~P (DegU phosphorylated by DegS + ATP) + SwrA; test: competition with a labelled probe; conditions: 20 ng unlabeled DNA, did not compete (SS complex); 50 mM Tris-HCl pH 7.6, 10 mM MgCl2, 1 mM DTT, 25 mM KCl, 0.1 mg/ml BSA, 0.1 mM ATP, 0.1 ug sonicated salmon sperm DNA; recombinant protein; probe letters rebuilt from the primers and the genome

## ACCCTCAATATCCTTGTCGAGAATTGTAAAACTATATGCTTATTGTAAGAAATAACAGGCATAAAGTCTATGAAGTTCGTGTAAAAAAATGTCCTCACAATTATCTATTTTGCAACTAGGTATAAAGTCCTAGATTGTTAGAACTACATTTCTCG (double strand) [K probe, 156 bp]
[1]; with DegS and ATP, S complex, label: 6-FAM (primer 8601)
  binding result: binds
[2]; with DegS and ATP, SS complex, label: 6-FAM (primer 8601)
  binding result: binds

## AGTTCTAACAATCTAGGACTTTATACCTAGTTGCAAAATAGATAATTGTGAGGACATTTTTTTACACGAACTTCATAGACTTTATGCCTGTTATTTCTTACAATAAGCATATAGTTTTACAATTCTCGACAAGGATATTGAGGGTGAAAAAAACTGAAATGGAGGTAAGTGGATTTGAGCTTATTTTCTGGAACGATACAAAATCTTGAAAATGCCTTGAGCAGAGCGGATATTAAGCAAAAAGTCATAACTAATAATATCGCCAATATAGATACACCGAACTATAACCATGGGC (double strand) [PA(fla/che) probe, 32P, 285 bp]
[3]
  binding result: binds
[2]; 0.1 uM DegU, 0.1 uM DegS, 1.5 uM SwrA, ATP, SwrA increases DNA binding at limiting DegU and DegS (Fig S2), label: 5'-32P
  binding result: binds
[4]
  binding result: no binding

## GCCCATGGTTATAGTTCGGTGTATCTATATTGGCGATATTATTAGTTATGACTTTTTGCTTAATATCCGCTCTGCTCAAGGCATTTTCAAGATTTTGTATCGTTCCAGAAAATAAGCTCAAATCCACTTACCTCCATTTCAGTTTTTTTCACCCTCAATATCCTTGTCGAGAATTGTAAAACTATATGCTTATTGTAAGAAATAACAGGCATAAAGTCTATGAAGTTCGTGTAAAAAAATGTCCTCACAATTATCTATTTTGCAACTAGGTATAAAGTCCTAGATTGTTAGAACTACATTTCTCG (double strand) [PA(fla/che) probe, FAM, 299 bp]
[5]
  binding result: binds more weakly
[6]
  binding result: binds
[1]; 0.35 uM DegU, 0.4 uM DegS, 10 mM Mg2+, label: 6-FAM
  binding result: binds
[7]
  binding result: binds
[2]; 0.35 uM DegU, 0.4 uM DegS, 1 uM SwrA, ATP, supershifted SS complex, label: 6-FAM
  binding result: binds
SwrA (Bacillus subtilis)
  binding result: no binding

## GGAGGATCCCGCTTCCTTCAGGTCGAACCCTTTACCGTTATCTTTTATCATTAAAATCACAAAATCCTTTGTGATCTCAACTTTGACTGTAATTTCTTCAGATTCAGAATGCTTTAGCGCATTAGACACAGCTTCCTGTGCGAGCCTGAAGAGCGCAACCTCAAACTGAGGCGCTAGCCTCTGATCCTCTGTTTCTCCAATGCACTGAAAATGTATTTTGACCTTCCCGTTATATTCCTCGGTTGTATATAGATATTTTCTTAAAGTTGGAATCAGGCC (double strand) [non-specific competitor (internal degS fragment)]
[8]
  binding result: no binding
[9]
  binding result: no binding

For at least one entry, the source does not settle the construct or the ends of the probe. For some of these results: A negative result means that nothing was seen under these conditions. For some of these results: Protein sequences can lack the tags named with them. For some of these results: Weaker means in comparison with the reference protein, sequence or condition of that experiment. For some of these results: At least one verdict was read from the data and is not stated in words by the source.
